Drawing on publication PMC5597257, this text covers binding for one substance.

Sequences of proteins named here, by UniProt entry; tags and fusion partners are left off. A change or cut given only in a name is not applied to a line headed by its entry.
UniProt A0A219V415: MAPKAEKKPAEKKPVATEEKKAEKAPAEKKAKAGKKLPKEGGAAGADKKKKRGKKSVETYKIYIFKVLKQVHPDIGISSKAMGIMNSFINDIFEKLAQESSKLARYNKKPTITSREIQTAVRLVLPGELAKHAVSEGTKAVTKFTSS

The target in the experiment is NbHUB1 fused to the N-terminal fragment of YFP (pSPYNE-NbHUB1) (Nicotiana benthamiana). Put plainly: split reporter; BiFC in planta, lower epidermis of N. benthamiana leaves, agroinfiltration of pSPYNE and pSPYCE fusions, confocal microscopy at 5 dpi.

Results are given in words; binding and its absence hold for the method and conditions named. In cells and extracts the contact can be indirect. A result given as binding can be weak or reduced; the word gives no strength.

For “NbH2B fused to the C-terminal fragment of YFP (pSPYCE-NbH2B) (from UniProt A0A219V415)”, the binding result is given as “binds”.
